From patent publication US8557989B2, “Electrochemical affinity biosensor system and methods” (priority 2003, dated 2013) come the findings set out here.

The data set in a line: Recycling CV and bipotentiostatic amperometric dose response on interdigitated array (IDA) electrodes.

`O=C(CCCCC1SCC2NC(=O)NC21)NCCCCCC(=O)NCCc1c[n+]([Os]23([Cl])([n+]4ccccc4-c4cccc[n+]42)[n+]2ccccc2-c2cccc[n+]23)c[nH]1` (centres unmarked) [compound 57]: the “slope of dose response curve” value (0-5 μM, planar IDA 750 finger pairs, W and Wg 2 μm, WE1=250 mV, WE2=0 mV) is recorded as “about 126 nA/μM”.
In the case of `CN1CC[C@]23c4c5ccc(OCCCNC(=O)c6ccc(-c7ccc(C(=O)NCCc8c[n+]([Os]9%10([Cl])([n+]%11ccccc%11-c%11cccc[n+]%119)[n+]9ccccc9-c9cccc[n+]9%10)c[nH]8)cc7)cc6)c4O[C@H]2C(O)C=CC3[C@H]1C5` (some centres unmarked) [osmium morphine conjugate], the “redox recycling on IDA” value is on record as “did not recycle properly”.
